{"sequences": {"note": "By UniProt entry, the sequences of proteins in these tests, tags left out. Residues count along the entry.", "UniProt P07288, 25-261": "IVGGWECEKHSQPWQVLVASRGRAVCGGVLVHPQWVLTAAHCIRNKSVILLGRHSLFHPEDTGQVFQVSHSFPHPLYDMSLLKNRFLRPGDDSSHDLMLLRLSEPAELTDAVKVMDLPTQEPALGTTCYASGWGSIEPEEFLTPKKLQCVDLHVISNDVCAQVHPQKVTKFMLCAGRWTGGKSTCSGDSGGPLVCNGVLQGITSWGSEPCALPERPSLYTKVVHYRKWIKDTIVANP"}, "source": "patent US20140011207", "key": {"[1]": {"biological_target": "Prostate-specific antigen (PSA, KLK3) (Homo sapiens) (UniProt P07288)", "experiment": "binding assay", "settings": "purified native protein, label: FITC, single-stranded DNA"}, "[2]": {"biological_target": "Prostate-specific antigen (PSA, KLK3) (Homo sapiens) (UniProt P07288)", "experiment": "ELONA", "settings": "purified native protein, label: 5'-FITC, single-stranded DNA"}, "[3]": {"settings": "aptamer blotting, not among the five clones reported to bind (implied)"}, "[4]": {"settings": "aptamer blotting on nitrocellulose"}}, "note": "For some of these results: Negatives hold for the conditions tested. For some of these results: The comparison behind a weaker result is the experiment's own reference, which may not be listed here. For some of these results: For at least one entry, the source does not settle the construct or the ends of the probe."}
{"sequence": "CATGCTTACCTATAGTGAACTTGTTATGGATTCACTGCCCAGCGTTTCATGCTTACCTATAGTGAAC [PSap#4-1]", "values": [{"measurement": "binding result", "setting": "[1]; [3]", "value": "no binding"}]}
{"sequence": "CATGCTTACCTATAGTGAACTTTAATATCAACTTGCCATCAAATATCTTTCATGCTTACCTATAGTGAAC [PSap#4-9]", "values": [{"measurement": "binding result", "setting": "[1]; [4]", "value": "binds"}]}
{"sequence": "CATGCTTACCTATAGTGAACTTTACTTAATGATTTCCCGGTTGTCTCTTTCATGCTTACCTATAGTGAAC [PSap#4-3]", "values": [{"measurement": "binding result", "setting": "[1]; aptamer blotting on nitrocellulose, TBST, 5 mM MgCl2, RT", "value": "binds"}]}
{"sequence": "CATGCTTACCTATAGTGAACTTTATTAGCCTCCCGGAAGAGCACCTCTTTCATGCTTACCTATAGTGAAC [PSap#4-5]", "values": [{"measurement": "binding result", "setting": "[1]; [3]", "value": "no binding"}]}
{"sequence": "CATGCTTACCTATAGTGAACTTTCCGCACCGGGTACGTTTTTTGGCCTTTCATGCTTACCTATAGTGAAC [PSap#4-6]", "values": [{"measurement": "binding result", "setting": "[1]; [4]", "value": "binds"}]}
{"sequence": "CATGCTTACCTATAGTGAACTTTCCGTCCTTGCCCATCTAGCGTCTTTTTCATGCTTACCTATAGTGAAC [PSap#4-2]", "values": [{"measurement": "binding result", "setting": "[1]; [3]", "value": "no binding"}]}
{"sequence": "CATGCTTACCTATAGTGAACTTTCCGTTGTAGCCTGGCTTCTACCTATTTCATGCTTACCTATAGTGAAC [PSap#4-12]", "values": [{"measurement": "binding result", "setting": "[1]; [3]", "value": "no binding"}]}
{"sequence": "CATGCTTACCTATAGTGAACTTTCTGCGTTCTTTCTTCCTACTTCACGTTCATGCTTACCTATAGTGAAC [PSap#4-7]", "values": [{"measurement": "binding result", "setting": "[1]; [3]", "value": "no binding"}]}
{"sequence": "CATGCTTACCTATAGTGAACTTTCTGGTGTTTATTGTTTACTGTCCCTTTCATGCTTACCTATAGTGAAC [PSap#4-4]", "values": [{"measurement": "binding result", "setting": "[1]; [4]", "value": "binds"}]}
{"sequence": "CATGCTTACCTATAGTGAACTTTGTGTTGCCCGGAACGTCGTGGCCCTTTCATGCTTACCTATAGTGAAC [PSap#4-11]", "values": [{"measurement": "binding result", "setting": "[1]; [4]", "value": "binds"}]}
{"sequence": "CATGCTTACCTATAGTGAACTTTTGGCGCAGTACTGGTCTACCTGGCTTTCATGCTTACCTATAGTGAAC [PSap#4-10]", "values": [{"measurement": "binding result", "setting": "[1]; [3]", "value": "no binding"}]}
{"sequence": "TTTTTAATATCAACTTGCCATCAAATATCTTT [ΔPSap#4-9]", "values": [{"measurement": "binding result", "setting": "[2]; parent rank 4, variant of PSap#4-9", "value": "binds more weakly"}]}
{"sequence": "TTTTTACTTAATGATTTCCCGGTTGTCTCTTT [ΔPSap#4-3]", "values": [{"measurement": "binding result", "setting": "[2]; parent rank 1, about 48-fold below ΔPSap4#5, variant of PSap#4-3", "value": "binds more weakly"}]}
{"sequence": "TTTTTCCGCACCGGGTACGTTTTTTGGCCTTT [ΔPSap#4-6]", "values": [{"measurement": "binding result", "setting": "[2]; parent rank 5, variant of PSap#4-6", "value": "binds more weakly"}]}
{"sequence": "TTTTTCTGGTGTTTATTGTTTACTGTCCCTTT [ΔPSap#4-4]", "values": [{"measurement": "binding result", "setting": "[2]; parent rank 2, variant of PSap#4-4", "value": "binds more weakly"}]}
{"sequence": "TTTTTGTGTTGCCCGGAACGTCGTGGCCCTTT [ΔPSap#4-11]", "values": [{"measurement": "binding result", "setting": "[2]; parent rank 3, variant of PSap#4-11", "value": "binds more weakly"}]}
